Assay results: paper PMC10625159
Like-named read-outs stand apart in the source and are kept apart here. No constants are given. Whether binding was seen depends on the method and setting. Binding seen in cells or lysates may run through a third protein. These calls come from enrichment with a bait or labelling near it, and not all partners need be listed. Each block holds one molecule with its values, some of them ahead of it.

Protein sequences, listed by entry. Tags and fused reporters are not part of them.
UniProt P62627: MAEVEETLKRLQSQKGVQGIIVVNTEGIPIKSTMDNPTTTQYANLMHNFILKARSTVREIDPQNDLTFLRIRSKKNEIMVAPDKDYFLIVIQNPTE
UniProt P97384: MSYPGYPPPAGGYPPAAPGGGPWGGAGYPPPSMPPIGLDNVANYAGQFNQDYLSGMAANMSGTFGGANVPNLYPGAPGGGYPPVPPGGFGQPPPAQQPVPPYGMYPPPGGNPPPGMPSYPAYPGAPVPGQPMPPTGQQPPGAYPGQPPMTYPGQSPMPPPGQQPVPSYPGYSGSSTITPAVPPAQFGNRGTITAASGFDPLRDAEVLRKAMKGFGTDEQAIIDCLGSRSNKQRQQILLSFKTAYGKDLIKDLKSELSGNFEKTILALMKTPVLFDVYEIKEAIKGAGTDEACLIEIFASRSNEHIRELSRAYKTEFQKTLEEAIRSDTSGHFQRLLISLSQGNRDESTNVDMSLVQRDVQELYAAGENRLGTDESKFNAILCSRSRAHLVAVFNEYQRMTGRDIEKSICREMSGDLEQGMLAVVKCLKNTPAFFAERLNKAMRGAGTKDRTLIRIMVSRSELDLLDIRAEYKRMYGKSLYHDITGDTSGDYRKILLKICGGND

Assays:
[1] = biological target: MnT–Dynlrb1 (flag-tagged miniTurbo fused to the N-terminus of dynein light chain roadblock 1), expressed in DRG neurons (mouse) (UniProt P62627); experiment: proximity labelling; miniTurbo biotinylation in cultured DRG neurons (200 μM biotin, 2 h, 37 °C), streptavidin bead pulldown, LC–MS/MS; hits: abundance ratio ≥2 over MnT-control and p ≤0.05
[2] = biological target: MnT–Dynlrb1 (flag-tagged miniTurbo fused to the N-terminus of dynein light chain roadblock 1), expressed in DRG neurons (mouse) (UniProt P62627); experiment: as above; remark: listed apart in the source

binding [1]: binds
Molecule: annexin A11 (Anxa11) (from UniProt P97384 1-503)

binding [2]: binds
B1: vacuolar protein sorting–associated protein VTA1 homolog (Vta1) (protein, UniProt Q9CR26 1-309)
chain: MAALAPLPPLPAQFKSIQHHLRTAQEHDKRDPVVAYYCRLYAMQTGMKIDSKTPECRKFLSKLMDQLEALKKQLGDNEAVTQEIVGCAHLENYALKMFLYADNEDRAGRFHKNMIKSFYTASLLIDVITVFGELTDENVKHRKYARWKATYIHNCLKNGETPQAGPVGIEEENDVEENEDVGATSLPTQPPQPSSSSAYDPSNLAPGSYSGIQIPPGAHAPANTPAEVPHSTGVTSNAVQPSPQTVPAAPAVDPDLYTASQGDIRLTPEDFARAQKYCKYAGSALQYEDVGTAVQNLQKALRLLTTGRE
